Measured values: PMC5295617
Changes are numbered by the printed parent chain. Numbers in names are those of the source. Read-outs that look alike come from different tables or passages of the source. Results are given in words; binding and its absence hold for the method and conditions named. Binding seen in cells or lysates may run through a third protein. Some entries that bind do so weakly or less than the wild type. For some of these results: Where a sequence is shown, tags or fusion partners need not be part of it. Blank lines part the entries; values can stand above or below the molecule they belong to.

Assays:
Test in all cases: pull-down; oligohistidine pull-down with Rz1-His; each spanin subunit expressed in a separate culture, complex formation in vitro with solubilized samples; products analysed by Western blot with anti-Rz and anti-Rz1 antibodies
[1] = molecular target: T1, Rz1-His (functional oligohistidine-tagged Rz1, lambda o-spanin) (coliphage lambda) (UniProt Q37935)
T1 sequence (chain, lipoylated Cys20 (as the paper says of Rz1)): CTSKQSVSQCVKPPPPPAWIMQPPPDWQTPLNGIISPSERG

[2] = molecular target: T2, Rz1-His I39V (coliphage lambda) (UniProt Q37935)
T2 sequence (chain, lipoylated Cys20 (as the paper says of Rz1)): T1 sequence (chain, lipoylated Cys20 (as the paper says of Rz1)) with I20V

[3] = molecular target: T3, Rz1-His P36Q (coliphage lambda) (UniProt Q37935)
T3 sequence (chain, lipoylated Cys20 (as the paper says of Rz1)): T1 sequence (chain, lipoylated Cys20 (as the paper says of Rz1)) with P17Q

[4] = molecular target: T1, Rz1-His (functional oligohistidine-tagged Rz1, lambda o-spanin) (coliphage lambda); remark: listed apart in the source
[5] = molecular target: T4, Rz1-His P44S (coliphage lambda) (UniProt Q37935)
T4 sequence (chain, lipoylated Cys20 (as the paper says of Rz1)): T1 sequence (chain, lipoylated Cys20 (as the paper says of Rz1)) with P25S

[6] = molecular target: T5, Rz1-His P32Q (coliphage lambda) (UniProt Q37935)
T5 sequence (chain, lipoylated Cys20 (as the paper says of Rz1)): T1 sequence (chain, lipoylated Cys20 (as the paper says of Rz1)) with P13Q

[7] = molecular target: T6, Rz1-His R59E (coliphage lambda) (UniProt Q37935)
T6 sequence (chain, lipoylated Cys20 (as the paper says of Rz1)): T1 sequence (chain, lipoylated Cys20 (as the paper says of Rz1)) with R40E

[8] = molecular target: T7, Rz1-His L50P (coliphage lambda) (UniProt Q37935)
T7 sequence (chain, lipoylated Cys20 (as the paper says of Rz1)): T1 sequence (chain, lipoylated Cys20 (as the paper says of Rz1)) with L31P

[9] = molecular target: T8, Rz1-His P35H (coliphage lambda) (UniProt Q37935)
T8 sequence (chain, lipoylated Cys20 (as the paper says of Rz1)): T1 sequence (chain, lipoylated Cys20 (as the paper says of Rz1)) with P16H

[10] = molecular target: Rz1-His W46R (coliphage lambda) (UniProt Q37935)
[11] = molecular target: T9, Rz1-His P33L (coliphage lambda) (UniProt Q37935)
T9 sequence (chain, lipoylated Cys20 (as the paper says of Rz1)): T1 sequence (chain, lipoylated Cys20 (as the paper says of Rz1)) with P14L

- binding [1]: binds
Molecule: Rz Q151X (from UniProt P00726 1-150) (domain or fragment)

- binding [1]: binds
Molecule: Rz C152X (from UniProt P00726 1-151) (domain or fragment)

- binding [2]: binds
- binding [3]: binds
- binding [4]: binds
- binding [5]: binds
- binding [6]: binds
- binding [7]: binds
- binding [8]: binds
- binding [9]: binds
- binding [10]: binds
- binding [11]: binds
B1: Rz (lambda i-spanin, inner membrane subunit of the spanin complex) (protein, UniProt P00726 1-153)
chain: MSRVTAIISALVICIIVCLSWAVNHYRDNAITYKAQRDKNARELKLANAAITDMQMRQRDVAALDAKYTKELADAKAENDALRDDVAAGRRRLHIKAVCQSVREATTASGVDNAASPRLADTAERDYFTLRERLITMQKQLEGTQKYINEQCR

- binding [4]: binds
B2: Rz Q151R (protein, UniProt P00726 1-153)
chain: B1 chain with Q151R

- binding [4]: no binding
B3: Rz E150G (protein, UniProt P00726 1-153)
chain: B1 chain with E150G

- binding [4]: binds
B4: Rz Q151K (protein, UniProt P00726 1-153)
chain: B1 chain with Q151K

- binding [4]: binds
B5: Rz Y147H (protein, UniProt P00726 1-153)
chain: B1 chain with Y147H
